Data taken from patent US20160195533A1, “METHOD FOR SCREENING EMT INHIBITOR” (Medicinal Bioconvergence Research Center, priority 2015, published 2016).
Results are given in words; binding and its absence hold for the method and conditions named. In cells and extracts the contact can be indirect. Some results given as binding are weak or reduced against the parent protein; the word gives no strength.

Chains of the proteins cited; added tags and fusions are not shown. Lines headed by an entry give the natural chain unless they say otherwise; changes in a name come on top.
UniProt O95863: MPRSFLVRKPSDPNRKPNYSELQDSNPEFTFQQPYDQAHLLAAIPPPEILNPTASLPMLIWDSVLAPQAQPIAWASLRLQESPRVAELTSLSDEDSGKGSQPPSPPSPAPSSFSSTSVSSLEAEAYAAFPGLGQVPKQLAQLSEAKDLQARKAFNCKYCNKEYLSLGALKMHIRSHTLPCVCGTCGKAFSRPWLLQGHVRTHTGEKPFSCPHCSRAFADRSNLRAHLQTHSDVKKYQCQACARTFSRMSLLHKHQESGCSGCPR
UniProt P07814: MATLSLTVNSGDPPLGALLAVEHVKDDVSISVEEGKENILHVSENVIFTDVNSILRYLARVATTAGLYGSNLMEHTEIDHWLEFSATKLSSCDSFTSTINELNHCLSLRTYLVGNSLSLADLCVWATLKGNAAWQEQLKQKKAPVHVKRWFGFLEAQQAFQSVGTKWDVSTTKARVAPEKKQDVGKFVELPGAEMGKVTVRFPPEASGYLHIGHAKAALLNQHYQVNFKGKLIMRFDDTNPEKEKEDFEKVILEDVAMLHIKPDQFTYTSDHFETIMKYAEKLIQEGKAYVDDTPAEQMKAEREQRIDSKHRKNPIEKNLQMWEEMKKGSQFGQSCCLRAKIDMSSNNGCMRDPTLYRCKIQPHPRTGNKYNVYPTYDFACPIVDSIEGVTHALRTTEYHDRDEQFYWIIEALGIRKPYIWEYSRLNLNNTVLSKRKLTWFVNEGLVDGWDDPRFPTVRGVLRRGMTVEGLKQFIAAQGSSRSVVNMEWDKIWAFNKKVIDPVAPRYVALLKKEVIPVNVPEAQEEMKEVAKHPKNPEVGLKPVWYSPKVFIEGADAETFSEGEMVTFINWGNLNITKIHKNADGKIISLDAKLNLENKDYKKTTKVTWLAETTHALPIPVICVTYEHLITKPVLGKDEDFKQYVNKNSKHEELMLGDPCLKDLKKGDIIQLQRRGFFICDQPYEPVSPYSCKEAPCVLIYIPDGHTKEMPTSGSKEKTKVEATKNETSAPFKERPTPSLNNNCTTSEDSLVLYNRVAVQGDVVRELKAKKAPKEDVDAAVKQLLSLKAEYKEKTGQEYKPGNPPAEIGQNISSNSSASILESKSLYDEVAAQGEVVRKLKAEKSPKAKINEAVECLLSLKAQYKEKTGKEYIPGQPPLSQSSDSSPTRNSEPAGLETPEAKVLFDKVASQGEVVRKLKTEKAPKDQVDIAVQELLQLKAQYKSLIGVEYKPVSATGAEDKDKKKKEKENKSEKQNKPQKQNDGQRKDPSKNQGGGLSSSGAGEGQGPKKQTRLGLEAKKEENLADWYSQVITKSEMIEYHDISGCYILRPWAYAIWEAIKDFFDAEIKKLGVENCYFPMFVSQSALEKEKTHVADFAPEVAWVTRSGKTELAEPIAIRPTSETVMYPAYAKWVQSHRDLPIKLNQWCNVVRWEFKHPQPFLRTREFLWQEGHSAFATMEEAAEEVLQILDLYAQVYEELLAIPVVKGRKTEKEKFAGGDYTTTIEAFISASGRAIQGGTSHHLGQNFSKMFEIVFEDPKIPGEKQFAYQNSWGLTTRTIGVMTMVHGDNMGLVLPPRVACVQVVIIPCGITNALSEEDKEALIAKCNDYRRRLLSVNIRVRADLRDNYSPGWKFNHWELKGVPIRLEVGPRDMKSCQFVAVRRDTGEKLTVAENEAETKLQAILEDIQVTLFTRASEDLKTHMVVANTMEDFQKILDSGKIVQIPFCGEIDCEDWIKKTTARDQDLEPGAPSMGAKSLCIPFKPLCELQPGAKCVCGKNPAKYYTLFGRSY

Legend:
[1] = biological target: Flag-tagged Snail1 (pCMV-Tag2B N-terminal Flag-tagged Snail1 expression vector, Addgene) (human) (UniProt O95863); test: Strep pull-down (MagSTREP type 2HC) from co-transfected HEK293T cells, anti-Flag western blot
[2] = biological target: glutamyl-prolyl-tRNA synthetase (EPRS), endogenous protein of A549 or HEK293T cells (human) (UniProt P07814); test: Strep pull-down (MagSTREP type 2HC) from HEK293T lysate, anti-EPRS western blot

Row | binding [1] | binding [2] | Substance
1 | binds | – | 2× Strep-tagged EPRS (pEXPR-2×IBA105-EPRS) (from UniProt P07814 1-1512) (enzyme)
2 | – | binds | Strep-tagged Snail1 (pEXPR-IBA105-Snail1) (from UniProt O95863 1-264)
